The supplement of paper PMC3334620
In all, about 33,000 sequences were measured (“E-score (-0.5 to 0.5)”: median about -0.015, highest 2% from about 0.3 on). The list shows a part of the results.

The sequences below were run against T1, Abf1 (UniProt P14164) (assay: PBM E-score (8-mer binding enrichment) (E-score (-0.5 to 0.5)); higher = stronger / more preferred TF binding). Settings: protein concentration: 200 nM; construct: GST-full length.
T1 sequence: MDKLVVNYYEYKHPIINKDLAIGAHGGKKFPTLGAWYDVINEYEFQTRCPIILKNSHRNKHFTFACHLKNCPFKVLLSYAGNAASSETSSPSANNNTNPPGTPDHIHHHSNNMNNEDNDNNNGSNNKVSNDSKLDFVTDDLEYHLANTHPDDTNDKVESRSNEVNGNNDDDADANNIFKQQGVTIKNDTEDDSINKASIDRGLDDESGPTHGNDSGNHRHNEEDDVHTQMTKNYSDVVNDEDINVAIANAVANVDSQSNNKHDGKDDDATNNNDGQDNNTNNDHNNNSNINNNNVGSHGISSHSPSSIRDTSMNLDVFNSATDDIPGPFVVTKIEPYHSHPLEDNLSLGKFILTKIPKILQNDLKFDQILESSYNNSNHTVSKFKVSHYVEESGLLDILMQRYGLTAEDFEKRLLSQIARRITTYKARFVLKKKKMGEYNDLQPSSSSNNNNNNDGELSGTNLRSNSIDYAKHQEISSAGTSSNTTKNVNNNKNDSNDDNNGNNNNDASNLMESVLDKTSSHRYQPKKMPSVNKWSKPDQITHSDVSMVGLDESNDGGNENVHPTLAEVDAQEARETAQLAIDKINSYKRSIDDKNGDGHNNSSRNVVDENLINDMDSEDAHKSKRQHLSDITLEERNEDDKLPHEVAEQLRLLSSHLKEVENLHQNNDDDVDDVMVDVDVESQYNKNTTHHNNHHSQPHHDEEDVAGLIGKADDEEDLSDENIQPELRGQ
Summary of the method: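 For each ungapped eight-base word taken together with its reverse complement, the Universal PBM Analysis Suite assigned an E-score. Binding data came from GST-tagged yeast transcription factors, applied at about 100-200 nM, on universal all-10-mer Agilent arrays made double-stranded by primer extension. Fluorescent anti-GST marked bound protein, and scans were normalised with masliner.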

Point of comparison: ATTACCGC, “PBM E-score” value 0.0374. Against it:
- GTCAGAAA — higher, 0.125
- CATGATTC — lower, -0.0658
- AATAAAAC — higher, 0.0985
- GGCAAGTA — lower, -0.0208
- ATAATGGA — higher, 0.147
- ACATGCTG — lower, -0.0137
- ATACTATG — higher, 0.106
- ACCCATTC — lower, -0.0423
- GGGGGCCA — lower, -0.462
- ATTACTAA — higher, 0.0647
- AGAGTTCA — lower, -0.208
- CATTTGGA — lower, -0.0277
- CGGGGGGA — lower, -0.248
- GACCCGTC — lower, -0.0995
- AGGGCTGG — lower, -0.194
- AACATATA — lower, -0.0343
- CTAAGTTC — lower, -0.0944
- AATGTCTA — higher, 0.054
- TTGCAAAA — higher, 0.0573
- GGAGATCC — lower, -0.0797
- AATGTTAA — lower, -0.124
- AGACCGCA — lower, -0.104
- ACTGCGAT — lower, -0.0827
- CAAGCAAG — lower, -0.0699
- CACCGACC — lower, 0.00484
- GGCCTCGA — lower, -0.172
- CCTGGCAA — lower, -0.325
- AGCTCCAA — higher, 0.0671
- TCAAGGGA — lower, -0.21
- AGGCGCGA — lower, -0.0631
- ATCAACCC — higher, 0.197
- GCTTCCCC — lower, -0.304
- GTCACTAA — higher, 0.393
- TAGTCTCA — lower, 0.0351
- AAGGGTGC — higher, 0.0759
- ACCCCACA — lower, -0.115
- CATTTCCG — higher, 0.124
- AACCTACT — lower, -0.257
- CTCGGAGC — lower, -0.096
- ACCCAGAG — lower, -0.0714
- CTACGACA — higher, 0.263
- CCCGCCAG — lower, -0.105
- CAAAAAGA — higher, 0.0578
- CGTTAGGC — lower, -0.00562
- TAACCCTA — lower, -0.156
- GCGTAGCA — higher, 0.0569
- ACCGCCGT — higher, 0.129
- AACTCATT — lower, -0.0215
- CATGCATG — lower, -0.0319
- AGTGGCCA — lower, -0.172
- TAGTTTAA — higher, 0.0583
- CGAGACTC — higher, 0.0667
- GAGGTCGC — lower, 0.0116
- GACCGGGC — lower, -0.123
- AGTACCGG — lower, -0.202
- AGAATACC — higher, 0.177
- CTAAGTAG — higher, 0.147
- GAGACTGA — lower, -0.0623
- GAATCGAC — lower, -0.0108
- CTAACCTA — lower, 0.0259
- CGCTTACA — lower, -0.088
- GCCCATAA — lower, -0.0532
- AATTACCA — lower, -0.0141
- TGTAGCAA — higher, 0.115
- GCTCACCA — lower, -0.17
- GGGCAGGA — lower, -0.0977
- AAGCTTCC — lower, -0.0959
- ATTATGTC — higher, 0.303
- CTGTAGCC — lower, -0.271
- ATCGGCGA — lower, -0.0365
- AACGATTA — higher, 0.172
- ATACGTAT — higher, 0.224
- ATAGATTC — higher, 0.0566
- ACCCTGCA — lower, 0.0315
- CAACATGG — lower, -0.159
- ATGGCACG — lower, -0.159
- GCTCCCCA — lower, -0.247
- CTTGGGCA — lower, -0.0573
- AAAAGTGT — lower, -0.12
- GGGACGTA — higher, 0.159
- CGAATGAG — lower, -0.0243
- ATTTTACG — higher, 0.322
- ATAGATCC — higher, 0.0856
- AGACGAGA — higher, 0.0552
- CCTCTAAC — lower, -0.0207
